Measurements reported in PubChem BioAssay AID720505 (Drosophila RNAi Screening Center, 2013).
The deposit covers about 20,000 reagents; shown is an unselected part of those with a known target gene and a result. In the full data, about 2,100 (10%) got an active call. 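Raw plate signals without normalisation; calls rest on control-based scores that were not deposited; replicate 2 separates called from uncalled poorly.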 Not stated in the record: the amount of reagent, the time to read-out.

Screen: 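Knock-downs that reduce calcium influx once internal stores are emptied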 (primary screen)
System: Drosophila S2R+ cells
Reagents: long dsRNA against Drosophila genes
Conditions: thapsigargin (2 µM) in calcium-free buffer to empty internal stores, then 2 mM calcium added back
Read-out: 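Stores emptied by 2 µM thapsigargin without calcium, then 2 mM calcium re-added; fluo-4 fluorescence followed by FLIPR in 384-well plates, per-well averaged endpoint, raw; two screen passes, some wells retested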
Scale: calcium signal and retest calcium signal: higher = more calcium entry after store depletion
Active means: 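Knock-downs counted as hits when calcium entry dropped relative to STIM1 positive and Rho1 negative controls present on each plate; roughly 1500 genes called, with reductions of differing size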
Calls: active = called as lowering calcium entry; inactive = not called

| gene | dsRNA | calcium signal, replicate 1 | calcium signal, replicate 2 | retest calcium signal, replicate 1 | retest calcium signal, replicate 2 | Call |
| --- | --- | --- | --- | --- | --- | --- |
| CG30022 | DRSC22405 | 96.6 | 143 | – | – | inactive |
| l(2)05287 (lethal (2) 05287) | DRSC02151 | 109 | 89.6 | – | – | inactive |
| l(2)05287 (lethal (2) 05287) | DRSC02152 | 86.2 | 77.2 | – | – | inactive |
| porin | DRSC03594 | 91.3 | 126 | – | – | inactive |
| Syx6 (Syntaxin 6) | DRSC07032 | 128 | 138 | – | – | inactive |
| CG10164 | DRSC14197 | 105 | 149 | – | – | inactive |
| Mur11Da (Mucin related 11Da) | DRSC18960 | – | – | – | – | active |
| mrn (marionette) | DRSC10913 | 134 | 84.9 | – | – | inactive |
| Rnf11 (Ring finger protein 11) | DRSC21574 | 164 | 74.6 | – | – | inactive |
| meso18E | DRSC20351 | 78 | 103 | – | – | inactive |
| Gbeta5 (G protein beta subunit 5) | DRSC17754 | 164 | 141 | – | – | inactive |
| Cluap1 (Clusterin associated protein 1) | DRSC20637 | 209 | 96 | 157 | 114 | inactive |
| CG14621 | DRSC20635 | 96.6 | 93.2 | – | – | inactive |
| CG43897 | DRSC10173 | 90.8 | 93.3 | – | – | inactive |
| CG43897 | DRSC10965 | 71.9 | 81 | – | – | inactive |
| CG43897 | DRSC10967 | 89.6 | 113 | – | – | inactive |
| CG43897 | DRSC21583 | 120 | 166 | – | – | inactive |
| alc (alicorn) | DRSC07062 | 190 | 131 | – | – | inactive |
| alc (alicorn) | DRSC21464 | 99.6 | 106 | – | – | inactive |
| alc (alicorn) | DRSC23316 | 130 | 153 | – | – | inactive |
| CG11693 | DRSC14353 | 90.8 | 151 | – | – | inactive |
| Eig71Ek | DRSC11158 | 85.3 | 171 | – | – | inactive |
| CR30409 (pseudo) | DRSC22058 | 75.8 | 172 | – | – | inactive |
| P5cr-2 (Pyrroline-5-carboxylate reductase-like 2) | DRSC15889 | 125 | 152 | – | – | inactive |
| Psa (Puromycin sensitive aminopeptidase) | DRSC08152 | 134 | 179 | – | – | inactive |
| alpha-Catr (alpha-catenin related) | DRSC04669 | 82.9 | 228 | – | – | inactive |
| CG2201 | DRSC03721 | 185 | 84.3 | – | – | inactive |
| CG43075 | DRSC19074 | 63.2 | 90.8 | – | – | inactive |
| su(w[a]) (suppressor of white-apricot) | DRSC18840 | 120 | 194 | – | – | inactive |
| Uba1 (Ubiquitin activating enzyme 1) | DRSC07567 | 153 | 153 | – | – | inactive |
| Pfk (Phosphofructokinase) | DRSC07506 | 158 | 140 | – | – | inactive |
| Nadk2 (NAD kinase 2, mitochondrial) | DRSC07072 | 172 | 122 | – | – | inactive |
| CG12538 | DRSC14527 | 155 | 224 | – | – | inactive |
| CG15771 | DRSC18077 | 172 | 158 | – | – | active |

6 entries from above in another layout:
Syx6 (Syntaxin 6) [DRSC07032] → calcium signal, replicate 1 = 128; calcium signal, replicate 2 = 138; Call = inactive
CG10164 [DRSC14197] → calcium signal, replicate 1 = 105; calcium signal, replicate 2 = 149; Call = inactive
Mur11Da (Mucin related 11Da) [DRSC18960] → Call = active
mrn (marionette) [DRSC10913] → calcium signal, replicate 1 = 134; calcium signal, replicate 2 = 84.9; Call = inactive
Rnf11 (Ring finger protein 11) [DRSC21574] → calcium signal, replicate 1 = 164; calcium signal, replicate 2 = 74.6; Call = inactive
meso18E [DRSC20351] → calcium signal, replicate 1 = 78; calcium signal, replicate 2 = 103; Call = inactive
